From PMC3539332
These are yes or no findings as the source states them, for the method shown. Binding can be weak; no strength is given. Tags and fused reporters may be left off the sequences shown. For some assays here: Binding seen in cells or lysates may run through a third protein.

Columns and labels:
[1] = target: T1, GST-Arfrp1 (Q79L), dominant active form, GTPγS-loaded (UniProt Q13795); assay: pull-down; GST-Arfrp1 on glutathione beads loaded with GDP (wt) or GTPγS (Q79L); bovine brain cytosol, 4°C overnight, 20 mM Hepes pH 7.4, 100 mM KCl, 5 mM MgCl2, 0.1% TX100; washed with 500 mM KCl; bound proteins by immunoblot; only the target purified
T1 sequence: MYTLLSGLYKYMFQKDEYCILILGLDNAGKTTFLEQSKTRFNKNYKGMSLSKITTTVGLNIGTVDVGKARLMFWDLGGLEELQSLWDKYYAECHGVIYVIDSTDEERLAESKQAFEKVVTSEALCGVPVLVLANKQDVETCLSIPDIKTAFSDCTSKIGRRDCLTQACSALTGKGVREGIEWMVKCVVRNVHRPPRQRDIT

GST-μ1 = target: T2, GST-μ1 (UniProt P35585); assay: pull-down; glutathione beads bearing 1 μg GST-μ1; 0.5 μg purified MBP-Vangl2 cytosolic domain in 400 μl of 100 mM KCl, 20 mM Hepes pH 7.4, 5 mM MgCl2, 0.5% TX-100, 0.1 mg/ml BSA, 4°C, 90 min; immunoblot; both purified
T2 sequence: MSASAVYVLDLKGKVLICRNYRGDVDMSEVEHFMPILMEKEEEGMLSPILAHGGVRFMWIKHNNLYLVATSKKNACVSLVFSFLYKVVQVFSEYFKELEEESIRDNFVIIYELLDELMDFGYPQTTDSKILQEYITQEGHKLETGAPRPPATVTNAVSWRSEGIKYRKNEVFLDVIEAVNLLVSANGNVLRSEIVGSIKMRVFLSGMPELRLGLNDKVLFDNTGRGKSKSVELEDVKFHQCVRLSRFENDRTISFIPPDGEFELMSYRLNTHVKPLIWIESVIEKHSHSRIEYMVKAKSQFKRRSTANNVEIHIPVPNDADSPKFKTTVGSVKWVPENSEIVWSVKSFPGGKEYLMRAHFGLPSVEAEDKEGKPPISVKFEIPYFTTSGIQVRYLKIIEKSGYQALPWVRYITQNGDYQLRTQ

Row | binding [1] | binding (GST-μ1) | Substance
1 | binds |  | γ1-adaptin
2 |  | binds | MBP-Vangl2 C-terminal domain wild type (domain or fragment)
